Results on one substance are retold here after publication PMC7029632, “Routing Nanomolar Protein Cargoes to Lipid Raft‐Mediated/Caveolar Endocytosis through a Ganglioside GM1‐Specific Recognition Tag” (Advanced Science, 2020).

This data set has as its system ganglioside GM1. The experiment in a line: ITC titration with GM1:DPC 1:5 bicelles. In kind it is binding. The settings on record: CFU-tagged derivatives, Figure S5.

CFU-WYKYW [CFU-tagged WYKYW derivative] returned a n1 of 0.5 and a n2 of 1.5.
